The supplement of paper PMC10849652
The other results are listed elsewhere or left out.

Chains of the proteins cited; added tags and fusions are not shown. Lines headed by an entry give the natural chain unless they say otherwise; changes in a name come on top.
UniProt P17098: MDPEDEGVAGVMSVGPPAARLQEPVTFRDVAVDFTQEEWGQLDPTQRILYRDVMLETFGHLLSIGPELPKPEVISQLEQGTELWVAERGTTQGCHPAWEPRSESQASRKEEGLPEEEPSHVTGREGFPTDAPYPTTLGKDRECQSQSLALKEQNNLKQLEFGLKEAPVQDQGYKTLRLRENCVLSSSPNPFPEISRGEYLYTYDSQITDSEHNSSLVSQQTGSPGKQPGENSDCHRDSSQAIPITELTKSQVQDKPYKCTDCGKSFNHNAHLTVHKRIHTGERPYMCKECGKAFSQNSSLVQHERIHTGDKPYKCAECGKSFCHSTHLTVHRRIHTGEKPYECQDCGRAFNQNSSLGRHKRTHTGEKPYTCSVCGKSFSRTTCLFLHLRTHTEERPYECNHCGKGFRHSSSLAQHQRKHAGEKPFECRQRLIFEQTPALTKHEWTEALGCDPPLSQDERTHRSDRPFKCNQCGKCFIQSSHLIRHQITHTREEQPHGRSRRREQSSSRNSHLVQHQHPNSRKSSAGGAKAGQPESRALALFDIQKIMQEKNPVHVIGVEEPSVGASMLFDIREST
UniProt Q15649: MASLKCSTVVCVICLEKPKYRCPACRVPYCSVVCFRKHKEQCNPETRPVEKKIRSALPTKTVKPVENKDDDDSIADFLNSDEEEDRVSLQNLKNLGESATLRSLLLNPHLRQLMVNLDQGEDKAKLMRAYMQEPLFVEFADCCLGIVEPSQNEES
UniProt O60232: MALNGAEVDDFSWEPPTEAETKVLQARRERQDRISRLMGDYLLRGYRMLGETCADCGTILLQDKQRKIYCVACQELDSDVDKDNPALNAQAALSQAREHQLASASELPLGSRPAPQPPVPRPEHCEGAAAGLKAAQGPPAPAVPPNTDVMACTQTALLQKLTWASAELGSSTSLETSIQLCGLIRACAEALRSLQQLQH
UniProt Q96NC0: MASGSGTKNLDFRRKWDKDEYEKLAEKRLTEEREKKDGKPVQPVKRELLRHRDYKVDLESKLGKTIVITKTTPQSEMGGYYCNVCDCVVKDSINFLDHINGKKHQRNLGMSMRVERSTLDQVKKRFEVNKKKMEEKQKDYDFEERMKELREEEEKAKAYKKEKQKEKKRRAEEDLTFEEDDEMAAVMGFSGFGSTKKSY
UniProt Q9P2E3: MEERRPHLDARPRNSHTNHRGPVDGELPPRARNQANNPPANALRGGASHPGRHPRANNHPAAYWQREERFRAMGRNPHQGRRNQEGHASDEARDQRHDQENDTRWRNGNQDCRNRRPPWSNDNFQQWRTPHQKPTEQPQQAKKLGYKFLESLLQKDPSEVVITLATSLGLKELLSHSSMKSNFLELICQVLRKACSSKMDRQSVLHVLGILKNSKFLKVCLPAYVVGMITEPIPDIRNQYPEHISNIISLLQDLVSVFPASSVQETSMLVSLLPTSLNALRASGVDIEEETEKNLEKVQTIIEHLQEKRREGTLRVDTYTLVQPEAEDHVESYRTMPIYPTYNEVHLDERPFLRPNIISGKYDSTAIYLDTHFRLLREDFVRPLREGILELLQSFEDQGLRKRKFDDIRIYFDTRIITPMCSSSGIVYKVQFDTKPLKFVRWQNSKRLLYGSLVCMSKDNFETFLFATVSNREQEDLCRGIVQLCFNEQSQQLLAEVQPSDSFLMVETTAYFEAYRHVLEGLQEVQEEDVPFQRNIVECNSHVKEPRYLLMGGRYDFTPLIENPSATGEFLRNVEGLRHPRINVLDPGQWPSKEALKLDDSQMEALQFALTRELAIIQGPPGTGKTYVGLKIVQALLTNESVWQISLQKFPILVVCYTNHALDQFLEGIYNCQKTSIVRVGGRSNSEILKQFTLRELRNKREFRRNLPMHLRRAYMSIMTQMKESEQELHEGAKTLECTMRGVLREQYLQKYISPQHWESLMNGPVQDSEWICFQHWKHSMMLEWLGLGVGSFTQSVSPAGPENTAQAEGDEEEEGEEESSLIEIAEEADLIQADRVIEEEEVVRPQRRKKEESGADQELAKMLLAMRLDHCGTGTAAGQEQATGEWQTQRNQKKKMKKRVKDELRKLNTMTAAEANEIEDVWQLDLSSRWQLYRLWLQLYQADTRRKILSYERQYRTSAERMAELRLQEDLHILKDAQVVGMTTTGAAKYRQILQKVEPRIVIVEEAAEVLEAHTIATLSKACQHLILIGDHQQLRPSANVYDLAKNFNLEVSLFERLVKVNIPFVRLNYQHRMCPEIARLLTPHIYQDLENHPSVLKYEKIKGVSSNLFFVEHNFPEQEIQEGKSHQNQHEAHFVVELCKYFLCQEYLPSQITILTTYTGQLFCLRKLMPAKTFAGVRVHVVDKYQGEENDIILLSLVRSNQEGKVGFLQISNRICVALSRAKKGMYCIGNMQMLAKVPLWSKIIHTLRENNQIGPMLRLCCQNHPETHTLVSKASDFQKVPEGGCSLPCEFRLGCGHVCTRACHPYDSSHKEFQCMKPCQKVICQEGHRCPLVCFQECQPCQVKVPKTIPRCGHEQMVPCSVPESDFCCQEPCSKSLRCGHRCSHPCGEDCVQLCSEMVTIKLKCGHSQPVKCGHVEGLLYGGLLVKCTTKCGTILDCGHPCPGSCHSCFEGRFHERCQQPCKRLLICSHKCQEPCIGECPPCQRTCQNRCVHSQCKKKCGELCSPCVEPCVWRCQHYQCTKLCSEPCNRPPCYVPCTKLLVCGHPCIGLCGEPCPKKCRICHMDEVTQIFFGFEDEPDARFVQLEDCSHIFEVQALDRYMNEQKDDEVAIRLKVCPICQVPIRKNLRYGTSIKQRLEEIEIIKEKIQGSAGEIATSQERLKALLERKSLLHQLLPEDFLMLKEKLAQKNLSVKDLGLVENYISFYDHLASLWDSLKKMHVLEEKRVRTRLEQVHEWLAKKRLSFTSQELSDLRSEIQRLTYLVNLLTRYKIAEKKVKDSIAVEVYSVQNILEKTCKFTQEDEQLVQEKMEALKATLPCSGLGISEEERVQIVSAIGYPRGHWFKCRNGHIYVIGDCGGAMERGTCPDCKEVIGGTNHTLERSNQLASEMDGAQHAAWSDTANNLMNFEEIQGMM
UniProt Q5VZL5: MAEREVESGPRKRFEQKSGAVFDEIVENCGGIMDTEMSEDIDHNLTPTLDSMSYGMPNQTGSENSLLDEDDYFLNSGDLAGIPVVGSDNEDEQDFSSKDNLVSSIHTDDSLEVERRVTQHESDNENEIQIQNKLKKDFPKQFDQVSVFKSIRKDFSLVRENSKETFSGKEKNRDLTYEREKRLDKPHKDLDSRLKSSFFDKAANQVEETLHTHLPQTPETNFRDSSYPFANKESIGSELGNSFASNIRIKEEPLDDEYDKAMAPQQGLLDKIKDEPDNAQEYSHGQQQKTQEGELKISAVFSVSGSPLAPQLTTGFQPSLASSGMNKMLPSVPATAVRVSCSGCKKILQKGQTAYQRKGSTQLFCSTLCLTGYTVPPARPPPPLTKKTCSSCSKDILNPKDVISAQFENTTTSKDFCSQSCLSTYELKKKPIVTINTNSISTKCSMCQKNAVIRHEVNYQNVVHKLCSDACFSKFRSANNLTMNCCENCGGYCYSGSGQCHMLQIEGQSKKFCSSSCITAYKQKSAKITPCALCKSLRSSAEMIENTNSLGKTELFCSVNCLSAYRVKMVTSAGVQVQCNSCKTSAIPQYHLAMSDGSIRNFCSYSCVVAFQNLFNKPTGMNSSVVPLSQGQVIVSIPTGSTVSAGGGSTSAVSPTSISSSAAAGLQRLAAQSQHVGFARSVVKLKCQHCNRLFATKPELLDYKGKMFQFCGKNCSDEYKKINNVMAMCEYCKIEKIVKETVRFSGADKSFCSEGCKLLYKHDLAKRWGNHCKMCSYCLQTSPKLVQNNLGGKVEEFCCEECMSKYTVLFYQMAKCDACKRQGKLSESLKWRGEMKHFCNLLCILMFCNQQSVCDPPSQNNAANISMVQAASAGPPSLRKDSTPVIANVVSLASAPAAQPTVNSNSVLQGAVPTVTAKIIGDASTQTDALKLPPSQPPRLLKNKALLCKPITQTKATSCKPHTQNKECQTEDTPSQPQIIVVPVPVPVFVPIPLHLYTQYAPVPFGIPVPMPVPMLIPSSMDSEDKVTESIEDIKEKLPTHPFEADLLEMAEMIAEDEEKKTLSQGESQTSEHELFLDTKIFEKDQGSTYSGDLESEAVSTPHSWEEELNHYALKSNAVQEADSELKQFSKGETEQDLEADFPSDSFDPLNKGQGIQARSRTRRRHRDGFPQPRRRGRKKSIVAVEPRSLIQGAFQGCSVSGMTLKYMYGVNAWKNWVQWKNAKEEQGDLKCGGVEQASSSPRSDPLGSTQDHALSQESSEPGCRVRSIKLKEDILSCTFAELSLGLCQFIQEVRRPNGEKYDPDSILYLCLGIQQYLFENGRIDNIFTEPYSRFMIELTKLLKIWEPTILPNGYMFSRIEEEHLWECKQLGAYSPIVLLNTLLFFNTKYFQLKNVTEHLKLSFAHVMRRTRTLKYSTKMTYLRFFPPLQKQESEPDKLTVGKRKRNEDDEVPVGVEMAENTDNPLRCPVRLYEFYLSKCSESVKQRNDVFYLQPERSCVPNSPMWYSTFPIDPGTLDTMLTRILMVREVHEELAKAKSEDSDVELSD
UniProt P35789: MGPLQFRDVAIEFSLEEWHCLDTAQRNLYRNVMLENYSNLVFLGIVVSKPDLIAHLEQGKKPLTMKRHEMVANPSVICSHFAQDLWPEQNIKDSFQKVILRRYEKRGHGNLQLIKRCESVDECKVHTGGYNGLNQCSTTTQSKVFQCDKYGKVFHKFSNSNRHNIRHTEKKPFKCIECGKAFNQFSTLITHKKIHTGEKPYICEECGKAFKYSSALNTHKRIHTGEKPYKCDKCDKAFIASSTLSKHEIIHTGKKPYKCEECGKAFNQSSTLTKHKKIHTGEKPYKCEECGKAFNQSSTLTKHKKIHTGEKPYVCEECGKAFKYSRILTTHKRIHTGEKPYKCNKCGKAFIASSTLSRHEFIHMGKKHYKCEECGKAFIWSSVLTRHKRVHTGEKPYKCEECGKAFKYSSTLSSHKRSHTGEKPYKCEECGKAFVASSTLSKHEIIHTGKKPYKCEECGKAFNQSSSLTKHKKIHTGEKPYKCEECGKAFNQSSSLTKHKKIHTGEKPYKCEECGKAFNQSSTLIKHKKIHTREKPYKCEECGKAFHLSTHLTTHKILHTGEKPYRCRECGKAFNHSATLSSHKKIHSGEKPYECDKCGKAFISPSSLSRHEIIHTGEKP
UniProt Q9ULU4: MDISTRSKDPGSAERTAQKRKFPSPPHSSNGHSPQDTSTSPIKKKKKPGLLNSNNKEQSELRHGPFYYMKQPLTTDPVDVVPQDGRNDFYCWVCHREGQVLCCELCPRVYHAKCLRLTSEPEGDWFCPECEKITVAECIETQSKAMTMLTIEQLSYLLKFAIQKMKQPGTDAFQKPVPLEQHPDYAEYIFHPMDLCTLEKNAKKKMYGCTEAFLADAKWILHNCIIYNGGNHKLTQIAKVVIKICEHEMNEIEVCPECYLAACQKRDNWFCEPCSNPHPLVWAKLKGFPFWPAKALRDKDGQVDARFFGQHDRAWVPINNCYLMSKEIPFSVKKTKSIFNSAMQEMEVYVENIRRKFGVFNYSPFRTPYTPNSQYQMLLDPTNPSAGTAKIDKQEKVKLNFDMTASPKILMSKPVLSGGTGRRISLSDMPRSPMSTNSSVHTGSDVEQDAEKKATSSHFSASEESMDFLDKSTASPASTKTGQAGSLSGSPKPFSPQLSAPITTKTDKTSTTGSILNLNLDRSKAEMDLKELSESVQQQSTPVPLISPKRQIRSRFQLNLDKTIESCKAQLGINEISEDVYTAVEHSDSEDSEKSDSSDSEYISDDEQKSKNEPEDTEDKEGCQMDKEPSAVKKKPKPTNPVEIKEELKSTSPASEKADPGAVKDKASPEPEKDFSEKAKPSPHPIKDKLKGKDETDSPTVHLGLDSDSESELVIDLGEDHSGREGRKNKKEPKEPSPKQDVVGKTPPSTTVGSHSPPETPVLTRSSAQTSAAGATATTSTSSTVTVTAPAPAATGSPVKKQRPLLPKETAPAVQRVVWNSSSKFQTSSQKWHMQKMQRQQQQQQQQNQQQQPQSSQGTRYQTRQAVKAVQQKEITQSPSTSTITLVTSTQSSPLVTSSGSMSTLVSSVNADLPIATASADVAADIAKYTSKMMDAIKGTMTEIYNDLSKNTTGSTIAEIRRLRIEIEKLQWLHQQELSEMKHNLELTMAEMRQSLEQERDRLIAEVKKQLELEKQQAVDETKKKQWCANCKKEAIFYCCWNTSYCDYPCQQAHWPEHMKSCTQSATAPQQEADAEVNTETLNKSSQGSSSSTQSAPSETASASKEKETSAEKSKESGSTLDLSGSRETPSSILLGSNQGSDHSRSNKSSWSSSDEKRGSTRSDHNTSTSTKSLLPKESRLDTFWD

Columns and labels:
Assay in all cases: log2 fold change, soluble protein after heating vs DMSO (PISA); higher = thermal stabilisation; K562 lysate, 10 uM; active = over 0.2 and 3.5 SD of the protein, either way, in both replicates (recomputed)
erlotinib = compound: C#Cc1cccc(Nc2ncnc3cc(OCCOC)c(OCCOC)cc23)c1 [erlotinib]
Summary of the method: (§1)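 Values give the log-two fold change in thermal stability against solvent controls, from duplicates. Crude K562 extract at 1 mg/mL protein, made by dounce homogenisation in PBS pH 7.4 with 1 mM MgCl2, was treated with 10 μM compound for 30 min. After 3 min heating across 48°C-58°C, aliquots were pooled, adjusted to 0.5% NP-40 at 4°C and centrifuged at 21,000xg for 90 min. The supernatant was measured by TMTpro 16plex LC-MS/MS with channel sums equalised.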

[1] = compound: C/C(=N\NC(=O)C1=CC(=CC=C1)S(=O)(=O)N2CCOCC2)/C3=C(C=CC(=C3)Cl)O
Summary of the method: as §1

[2] = compound: C1=CC(=CC=C1C2=NC3=C(N2)C=C(C=C3)C(=O)N)OC4=CC=C(C=C4)Cl
Summary of the method: as §1

[3] = compound: C1=CC2=C(C=CC(=C2)/C=C\3/C(=O)NC(=NCC4=CC=CS4)S3)N=C1
Summary of the method: as §1

[4] = compound: C1=CC2=NC=CN=C2C=C1/C=C/3\C(=O)NC(=O)S3
Summary of the method: as §1

[5] = compound: C1=CC=C(C=C1)C2=NC(=C(N2)C3=CC=NC=C3)C4=CC(=C(C=C4)Cl)O
Summary of the method: as §1

[6] = compound: C1=CC=C2C(=C1)C3=NNC4=CC=CC(=C43)C2=O
Summary of the method: as §1

IRAK-1-4 Inhibitor I = compound: C1COCCN1CCN2C3=CC=CC=C3N=C2NC(=O)C4=CC(=CC=C4)[N+](=O)[O-] [IRAK-1-4 Inhibitor I]
Summary of the method: as §1

ibrutinib = compound: C=CC(=O)N1CCC[C@@H](n2nc(-c3ccc(Oc4ccccc4)cc3)c3c(N)ncnc32)C1 [ibrutinib]
Summary of the method: as §1

ralimetinib = compound: CC(C)(C)Cn1c(N)nc2ccc(-c3[nH]c(C(C)(C)C)nc3-c3ccc(F)cc3)nc21 [ralimetinib]
Summary of the method: as §1

[7] = compound: CC(C)(O)CC(=O)NCCn1ccc2ncnc(Nc3ccc(Oc4cccc(C(F)(F)F)c4)c(Cl)c3)c21
Summary of the method: as §1

[8] = compound: CC(C)C1=C2N=C(C=C(N2N=C1)NCC3=CC=CC=C3)NCCCCCCN
Summary of the method: as §1

[9] = compound: CC1=C(C(CC(=O)N1)C2=CC=C(C=C2)C(F)(F)F)C(=O)NC3=C(C=C4C(=C3)C=NN4)F
Summary of the method: as §1

[10] = compound: CC1=C(C2=C(C=C1)C(=O)C3=CC=CC=C3N2CCCN)C
Summary of the method: as §1

[11] = compound: CC1=C(C=C(C=C1)NC(=O)C2=CC(=CC=C2)C(C)(C)C#N)NC3=CC4=C(C=C3)N=CN(C4=O)C
Summary of the method: as §1

[12] = compound: CC1=C(C=C(C=C1)NC(=O)C2=CC(=CC=C2)N(C)C)NC(=O)C3=CC=C(C=C3)O
Summary of the method: as §1

[13] = compound: C1CCN(C1)C(=O)NC2=CC=CC(=C2)NC3=NC=C(C(=N3)NCCC4=CN=CN4)Br
Summary of the method: as §1

[14] = compound: C1CN(CCC1(CC2=CC=C(C=C2)Cl)N)C3=NC=NC4=C3C=CN4
Summary of the method: as §1

[15] = compound: CC(=O)c1cnc2ccc(-c3cc(Cl)c(O)c(Cl)c3)nc2c1N[C@H]1CC[C@H](CN(C)C)CC1
Summary of the method: as §1

[16] = compound: CC1=CC=C(C=C1)SC2=C3C=C(SC3=CN=C2)C(=O)N
Summary of the method: as §1

Measured: log2 fold change

ZNF8 (UniProt P17098)
inactive: erlotinib -0.045 | [1] -0.296 | [2] -0.024 | [3] -0.107 | [4] 0.113 | [5] -0.108 | [6] 0.113 | IRAK-1-4 Inhibitor I 0.044 | ibrutinib 0.234 | ralimetinib 0.084 | [7] -0.054 | [8] 0 | [9] -0.053 | [10] -0.064 | [11] 0.004 | [12] 0.065

ZNHIT3 (UniProt Q15649)
inactive: erlotinib -0.054 | [1] -0.664 | [2] 0.023 | [3] -0.058 | [4] -0.029 | [5] -0.066 | [6] 0.048 | [13] -0.08 | [14] 0.162 | IRAK-1-4 Inhibitor I 0.039 | ibrutinib 0.034 | [15] -0.081 | ralimetinib 0.006 | [7] -0.027 | [8] -0.023 | [10] -0.076 | [11] 0.12 | [12] -0.021 | [16] -0.103

ZNF92 (UniProt Q03936)
inactive: erlotinib -0.076 | [1] -0.014 | [2] -0.041 | [3] -0.029 | [4] -0.005 | [5] 0.218 | [6] 0.091 | IRAK-1-4 Inhibitor I -0.051 | ibrutinib -0.022 | [15] 0.025 | ralimetinib 0.192 | [7] 0.086 | [8] -0.051 | [9] -0.045 | [10] 0 | [11] -0.09 | [12] -0.257 | [16] 0.113

ZNRD2 (UniProt O60232)
inactive: erlotinib 0.089 | [1] -0.009 | [2] 0.02 | [3] 0.068 | [4] -0.02 | [5] 0.037 | [6] 0.072 | [13] -0.025 | [14] 0.057 | IRAK-1-4 Inhibitor I 0 | ibrutinib 0.048 | [15] -0.005 | ralimetinib 0.017 | [7] 0.034 | [8] 0.003 | [9] 0.011 | [10] 0.047 | [11] 0.021 | [12] -0.018 | [16] 0.068

ZMYM1 (UniProt Q5SVZ6)
inactive: erlotinib -0.041 | [1] -0.027 | [2] -0.002 | [3] 0.021 | [4] 0.007 | [5] -0.036 | [6] 0.041 | [13] 0.043 | [14] 0.025 | IRAK-1-4 Inhibitor I -0.008 | ibrutinib -0.04 | [15] 0.012 | ralimetinib 0.02 | [7] 0.016 | [8] -0.022 | [9] -0.049 | [10] -0.008 | [11] 0.001 | [12] -0.007 | [16] -0.011

ZNF445 (UniProt P59923)
inactive: erlotinib 0.057 | [1] -0.04 | [2] 0.012 | [3] -0.024 | [4] -0.12 | [5] -0.057 | [6] -0.059 | IRAK-1-4 Inhibitor I -0.172 | ibrutinib 0.076 | ralimetinib -0.139 | [7] 0.078 | [8] 0.042 | [10] -0.018 | [12] 0.023

ZNHIT6 (UniProt Q9NWK9)
inactive: erlotinib 0.059 | [1] 0.475 | [2] 0.062 | [3] 0.024 | [4] -0.007 | [5] -0.008 | [6] -0.068 | [13] 0 | [14] 0.014 | IRAK-1-4 Inhibitor I 0.003 | ibrutinib -0.01 | [15] -0.097 | ralimetinib -0.032 | [7] 0.005 | [8] 0.001 | [9] 0.036 | [10] -0.02 | [11] 0.032 | [12] 0.018 | [16] -0.029

Looked up one by one from the list above (2):
ZNHIT6 (UniProt Q9NWK9)
inactive: erlotinib 0.059 | [1] 0.475 | [2] 0.062 | [3] 0.024 | [4] -0.007 | [5] -0.008 | [6] -0.068 | [13] 0 | [14] 0.014 | IRAK-1-4 Inhibitor I 0.003 | ibrutinib -0.01 | [15] -0.097 | ralimetinib -0.032 | [7] 0.005 | [8] 0.001 | [9] 0.036 | [10] -0.02 | [11] 0.032 | [12] 0.018 | [16] -0.029

ZMYM1 (UniProt Q5SVZ6)
inactive: erlotinib -0.041 | [1] -0.027 | [2] -0.002 | [3] 0.021 | [4] 0.007 | [5] -0.036 | [6] 0.041 | [13] 0.043 | [14] 0.025 | IRAK-1-4 Inhibitor I -0.008 | ibrutinib -0.04 | [15] 0.012 | ralimetinib 0.02 | [7] 0.016 | [8] -0.022 | [9] -0.049 | [10] -0.008 | [11] 0.001 | [12] -0.007 | [16] -0.011

Remaining list, next part

ZMAT2 (UniProt Q96NC0)
inactive: erlotinib 0.025 | [1] -0.037 | [2] 0.025 | [3] -0.023 | [4] -0.026 | [5] 0.023 | [6] 0.055 | [13] -0.007 | [14] -0.048 | IRAK-1-4 Inhibitor I 0.066 | ibrutinib 0.009 | [15] -0.016 | ralimetinib -0.011 | [7] 0.013 | [8] 0.035 | [9] -0.004 | [10] -0.021 | [11] 0.032 | [12] -0.028 | [16] -0.022

ZNFX1 (UniProt Q9P2E3)
inactive: erlotinib 0.088 | [1] -0.063 | [2] -0.158 | [3] 0.041 | [4] 0.033 | [5] -0.049 | [6] -0.043 | [13] 0.214 | [14] 0.105 | IRAK-1-4 Inhibitor I 0.025 | ibrutinib 0.027 | [15] -0.022 | ralimetinib 0.01 | [7] -0.008 | [8] -0.073 | [9] -0.041 | [10] -0.068 | [11] -0.038 | [12] -0.094 | [16] 0.039

ZMYM4 (UniProt Q5VZL5)
inactive: erlotinib -0.023 | [1] -0.068 | [2] 0.027 | [3] 0.073 | [4] -0.099 | [5] 0.042 | [6] -0.088 | [13] -0.09 | [14] 0.015 | IRAK-1-4 Inhibitor I 0.005 | ibrutinib -0.079 | [15] -0.004 | ralimetinib 0.055 | [7] -0.025 | [8] 0.051 | [9] 0.026 | [10] -0.089 | [11] -0.011 | [12] -0.012 | [16] -0.001

ZKSCAN4 (UniProt Q969J2)
inactive: erlotinib 0.048 | [1] 0.08 | [2] -0.092 | [3] 0.189 | [5] 0.165 | [6] 0.055 | IRAK-1-4 Inhibitor I -0.023 | [15] 0.13 | ralimetinib -0.09 | [7] 0.027 | [8] -0.032 | [11] 0.12 | [12] 0.061 | [16] 0.082

ZKSCAN8 (UniProt Q15776)
inactive: erlotinib -0.005 | [1] -0.418 | [2] -0.148 | [3] 0.004 | [5] -0.001 | [6] -0.04 | [13] 0.031 | [14] 0.006 | IRAK-1-4 Inhibitor I 0.077 | ralimetinib -0.021 | [7] -0.002 | [8] 0.229 | [9] 0.098 | [10] 0.008 | [11] -0.008 | [12] 0.04 | [16] -0.054
active: [15] 0.514

ZNF451 (UniProt Q9Y4E5)
inactive: erlotinib 0.036 | [1] -0.064 | [2] -0.007 | [3] -0.002 | [4] -0.032 | [5] 0.002 | [6] -0.014 | [13] -0.096 | [14] 0.026 | IRAK-1-4 Inhibitor I -0.009 | ibrutinib 0.004 | [15] 0.019 | ralimetinib 0.02 | [7] 0.007 | [8] -0.011 | [9] 0.033 | [10] -0.003 | [11] -0.012 | [12] 0.019 | [16] 0.055

ZNF330 (UniProt Q9Y3S2)
inactive: erlotinib 0.022 | [1] -0.019 | [2] 0.026 | [3] 0.013 | [4] 0.022 | [5] 0.021 | [6] 0.002 | [13] -0.06 | [14] 0 | IRAK-1-4 Inhibitor I -0.012 | ibrutinib 0.024 | [15] -0.026 | ralimetinib -0.012 | [7] -0.036 | [8] -0.048 | [9] -0.015 | [10] -0.038 | [11] 0.07 | [12] -0.02 | [16] -0.056

ZNF93 (UniProt P35789)
inactive: erlotinib 0.045 | [1] 0.083 | [2] -0.197 | [3] 0.071 | [5] 0.017 | [6] 0.037 | [13] -0.034 | [14] -0.025 | IRAK-1-4 Inhibitor I -0.025 | [15] 0.081 | ralimetinib 0.091 | [7] -0.048 | [8] -0.186 | [9] 0.099 | [10] -0.013 | [11] 0.025 | [12] 0.002 | [16] -0.053

ZNF845 (UniProt Q96IR2)
inactive: erlotinib -0.033 | [1] -0.145 | [2] 0.102 | [3] 0.02 | [4] -0.09 | [5] 0.047 | [6] -0.123 | IRAK-1-4 Inhibitor I -0.044 | ibrutinib 0.087 | [15] -0.039 | ralimetinib 0.093 | [7] 0 | [8] -0.061 | [9] -0.047 | [10] 0.072 | [11] 0.005 | [12] -0.012 | [16] -0.109

ZMYND8 isoform 19 (UniProt Q9ULU4)
inactive: erlotinib -0.012 | [1] -0.058 | [2] 0.023 | [3] 0.011 | [4] -0.037 | [5] 0.024 | [6] -0.077 | [13] -0.021 | [14] 0.018 | IRAK-1-4 Inhibitor I -0.025 | ibrutinib 0.111 | [15] -0.02 | ralimetinib 0.047 | [7] 0.007 | [8] 0.002 | [9] 0.007 | [10] 0.027 | [11] 0.02 | [12] 0.011 | [16] 0.037
